# Measurements reported in PubChem BioAssay AID540256 (National Center for Advancing Translational Sciences (NCATS), 2011).
# Values joined by “and” are separate entries in the source; they are usually repeats but may differ in a detail not shown here. Equal entries are not always repeated. In all, about 300,000 compounds went through this assay and about 3,700 (1.2%) were called active. This list was built around the results that the source calls inconclusive (neither active nor inactive); the mix of calls is not that of the screen. The call rests on the fitted dose curve; tested in HEK293 cells. Where the call is inconclusive, the potency comes from a doubtful curve fit.
# Assay: qHTS for Inhibitors of binding or entry into cells for Lassa Virus; further: nearly all actives have a fitted effect of over 50% in size
# Conditions: Lassa virus pseudotype entry inhibition, cell reporter; series mostly up to 37.9 µM
# Potency means the concentration at half of the fitted maximal effect.
row,Compound,Potency
1,CC(=O)c1c(C)oc2c1C(=O)c1ccccc1C2=O,inactive
2,CCCOc1ccc(CN(C(=O)c2cc(=O)c3ccc(C)cc3o2)C2CCS(=O)(=O)C2)cc1 (stereo unspecified),"inconclusive: 35.5 µM [inhibitor, single point]"
3,Cc1nc2cc(NC(=O)NCc3ccco3)ccc2n1C,"inconclusive: 5.17 µM [activator, full curve, poor fit]"
4,CC1=CC2=NC(=O)/C(=C\c3cccn3CCOc3cc(C)ccc3C)C(=N)N2O1,"inconclusive: 14.6 µM [inhibitor, partial curve, poor fit]"
5,Cc1cc(Cl)ccc1OCC(=O)NNC(=O)c1cnccn1,inactive
6,CN(C)CC[C@@H](c1ccc(Br)cc1)c1ccccn1,"inconclusive: 0.92 µM [activator, full curve, poor fit]"
7,CCCc1cc(=O)[nH]c(SCC(=O)c2c(N)n(CC(C)C)c(=O)n(C)c2=O)n1,"inconclusive: 11.2 µM [inhibitor, partial curve, poor fit]"
8,COc1ccc2nc(N(Cc3cccnc3)C(=O)C3COc4ccccc4O3)sc2c1 (stereo unspecified),"inconclusive: 8.91 µM [activator, partial curve]"
9,CCC(=O)Nc1ccc(N2CCN(C(=O)c3ccccc3C)CC2)cc1,inactive
10,O=C(CC12CC3CC(CC(C3)C1)C2)NCc1ccncc1,inactive
11,Cc1cc(C(=O)COC(=O)CCc2nc3ccccc3s2)c(C)n1C,"inconclusive: 32.6 µM [activator, single point]"
12,C/C(=N\NC(=O)c1cccc(F)c1)c1ccc(Br)s1,"inconclusive: 5.8 µM [inhibitor, full curve, poor fit]"
13,COc1ccccc1OCC(=O)NCC1CCCN(C(=O)c2ccccc2C(C)=O)C1 (stereo unspecified),inactive
14,CC(=NC1CC1)C1=C(O)c2ccccc2C1=O,inactive
15,Cc1noc(C)c1CCC(=O)N1CCCC(CCC(=O)NCc2ccccc2F)C1 (stereo unspecified),inactive
16,CN(C)c1ccc(C(=O)OCC(=O)N2CCCCCC2)cc1,inactive
17,Cc1ccc(-c2nnn(CC(=O)N(CC3CCCO3)C(C(=O)NC3CCCC3)c3ccc(O)cc3)n2)o1 (stereo unspecified),"inconclusive: 7.08 µM [inhibitor, partial curve]"
18,CC(CC(C)(C)N1CC1)=NNC(=O)Nc1cccc2ccccc12,"inconclusive: 7.08 µM [inhibitor, partial curve, poor fit]"
19,CCOC(=O)Cc1csc(NC(=O)c2ccc(S(=O)(=O)N3CCCC3)cc2)n1,"inconclusive: 7.3 µM [inhibitor, partial curve, poor fit]"
20,CCOC(=O)c1sc2c(c1C)c(=O)n(Cc1ccccc1)c(=O)n2CCN(C)C,"inconclusive: 17.8 µM [activator, single point]"
21,O=C1NC(=O)/C(=C/c2ccc(-c3cccc([N+](=O)[O-])c3)o2)S1,"inconclusive: 0.199 µM [inhibitor, full curve, poor fit]"

# Part of the list above in a different format.
row	Compound	Potency
3	Cc1nc2cc(NC(=O)NCc3ccco3)ccc2n1C	inconclusive: 5.17 µM [activator, full curve, poor fit]
9	CCC(=O)Nc1ccc(N2CCN(C(=O)c3ccccc3C)CC2)cc1	inactive
19	CCOC(=O)Cc1csc(NC(=O)c2ccc(S(=O)(=O)N3CCCC3)cc2)n1	inconclusive: 7.3 µM [inhibitor, partial curve, poor fit]

# Next entries

row,Compound,Potency
1,O=C(CCNS(=O)(=O)c1ccc(Br)s1)Nc1ccc(Cl)cc1,inactive
2,Cc1cc(C)c(Cn2c3ccccc3c3cnn(CC(=O)NCc4ccccn4)c(=O)c32)c(C)c1,"inactive and inconclusive: 35.5 µM [inhibitor, single point]"
3,Cc1csc2ncnc(NNC(=O)c3ccc(Cl)cc3)c12,"inconclusive: 7.08 µM [inhibitor, partial curve, poor fit]"
4,CC(c1ccccc1)N1CNc2c(c(=O)n(C)c(=O)n2C)C1 (stereo unspecified),"inconclusive: 1.41 µM [inhibitor, partial curve, poor fit]"
5,COc1ccc(Cc2[nH]n3c(=O)cc(C(C)C)nc3c2-c2ccccc2)cc1,"inconclusive: 10 µM [inhibitor, partial curve, poor fit]"
6,N#CC(CCc1ccc([N+](=O)[O-])cc1)(CCc1ccc([N+](=O)[O-])cc1)C(N)=O,inactive
7,CCN1CCN(C(=O)Cn2ncc3c4ccccc4n(Cc4ccccc4)c3c2=O)CC1,inactive
8,COc1cc(-c2cc3nc4ccccc4n3c(N)c2C#N)cc(OC)c1OC,"inconclusive: 1.12 µM [inhibitor, full curve, poor fit]"
9,Cc1ccc(S(=O)(=O)N2CCC3(CC2)CC(=O)c2ccccc2O3)cc1,"inconclusive: 35.5 µM [inhibitor, single point]"
10,Nc1nnc(SCC(=O)Nc2ccccc2)s1,inactive
11,CCCCOc1nc2ccccc2c(=O)n1-c1ccccc1,"inconclusive: 0.164 µM [activator, single point]"
12,Cc1cc(NC(=O)CCC(=O)N(c2ccccc2)C2(C(=O)NC3CCCCC3)CCCC2)no1,"inconclusive: 12.6 µM [inhibitor, partial curve, poor fit]"
13,CC(=O)c1c(C)[nH]c(C(=O)NCCC2=CCCCC2)c1C,"inconclusive: 35.5 µM [inhibitor, single point]"
14,CCc1nc(C)cn1S(=O)(=O)c1cc(C)c(OC)c(C)c1C,"inconclusive: 32.6 µM [inhibitor, single point]"
15,COc1ccc(C)cc1N(CC(=O)NCCSCc1ccco1)S(=O)(=O)c1ccc(C)cc1,"inconclusive: 11.2 µM [inhibitor, partial curve, poor fit]"
16,CCOC(=O)c1cc(C#N)c(N2CCN(C(=O)c3cccc(C(F)(F)F)c3)CC2)nc1C(F)(F)F,active: 1.78 µM
17,Cc1ccc(S(=O)(=O)N2CCOC2CNC(=O)C(=O)NCc2ccc(Cl)cc2)cc1 (stereo unspecified),"inconclusive: 12.6 µM [inhibitor, single point]"
18,O=C(NC(=S)Nc1cc(Cl)ccc1N1CCOCC1)c1ccc(-c2cccc(Cl)c2)o1,"inconclusive: 29.1 µM [inhibitor, partial curve, poor fit]"
19,Cc1ccc(-n2c(SCC(=O)NCc3ccccc3)nc3n[nH]c(C)c3c2=N)cc1Cl,"inconclusive: 22.4 µM [inhibitor, single point]"
20,O=[N+]([O-])c1cccc(NC(=S)Nc2nc(-c3ccccc3Cl)cs2)c1,"inconclusive: 11.2 µM [inhibitor, partial curve, poor fit]"
